Measured values: PubChem BioAssay AID248 (DTP/NCI, 2004)
The list shows only some results of the screen, not a fair sample: it gathers tests that were run many times, whatever their T/C, doses with no T/C, and many T/C values between a quarter and a half above the control. Further doses and runs are listed elsewhere. T/C gives the treated animals as a percentage of the vehicle group. Some entries give survivors of the animals treated and no T/C: the source files T/C as zero there, which appears to mark a toxic dose or a test without result, not a measured value. Some survivor counts are full or nearly so, which does not show that the dose was tolerated: the source hardly ever lists a survival T/C far under the control, and the zero likely stands for such cases as well. Counts of survivors are from the toxicity check (mostly the fifth day) where no day follows; animals may have died later. Schedule codes are those of the source, read here as Q, the interval in days (D) or hours (H), X, the number of doses. Signs of the kind (2×) give the number of equal values in this list. Some schedule codes hold Z or #, which are not explained here. Some entries were tested several times; their values stand side by side, smallest first. For survival time, the PubChem record calls one and a half times the control and up active, and a quarter to a half above the control has no call in these data; cut-offs in other NCI protocols can differ. Some T/C values are followed by the survivors on the day toxicity was checked, most often the fifth; without a count, all were alive then.

System: L1210 leukemia ip in BDF1 mice, survival T/C
Test: NCI In Vivo Anticancer Drug Screen. Data for tumor model L1210 Leukemia (intraperitoneal) in B6D2F1 (BDF1) mice
Conditions: T/C endpoint: mean survival time, higher T/C = longer survival
[1] = dose: 50.0 mg/kg/injection, schedule: Q04DX003 (ip), vehicle: water

With `Nc1ncn(C2OC(CO)C(O)C2O)c(=O)n1` (stereo unspecified) the T/C (dose: 0.25 mg/kg/injection, schedule: Q01DX009 (ip), vehicle: saline) was 135 % of control, the T/C (dose: 0.25 mg/kg/injection, schedule: Q01DX015 (ip), vehicle: carboxymethylcellulose (CMC)) was 125 % of control and the T/C (dose: 0.45 mg/kg/injection, schedule: Q01DX009 (ip), vehicle: saline) was 138 and 141 % of control. The T/C (dose: 0.5 mg/kg/injection, schedule: Q01DX005 (ip), vehicle: saline) was 140 % of control, the T/C (dose: 0.5 mg/kg/injection, schedule: Q01DX015 (ip), vehicle: carboxymethylcellulose (CMC)) was 131 % of control and the T/C (dose: 0.75 mg/kg/injection, schedule: Q01DX009 (ip), vehicle: water, evaluated on day 5) was 132 % of control. For the same compound, the T/C (dose: 0.75 mg/kg/injection, schedule: Q01DX009 (ip), vehicle: water, evaluated on day 60) was 133 and 145 % of control, the T/C (dose: 0.9 mg/kg/injection, schedule: Q01DX009 (ip), vehicle: saline) was 145, 154, 158, 171 % of control and the T/C (dose: 1.0 mg/kg/injection, schedule: Q01DX005 (ip), vehicle: saline) was 146 % of control. The T/C (dose: 1.0 mg/kg/injection, schedule: Q01DX015 (ip), vehicle: other) was 130 % of control, the T/C (dose: 1.12 mg/kg/injection, schedule: Q01DX009 (oral), vehicle: saline) was 126 % of control and the T/C (dose: 1.25 mg/kg/injection, schedule: Q01DX009 (ip), vehicle: carboxymethylcellulose (CMC)) was 147 % of control. For the same compound, the T/C (dose: 1.6 mg/kg/injection, schedule: Q04DX003 (ip), vehicle: water) was 137 and 145 % of control, the T/C (dose: 1.8 mg/kg/injection, schedule: Q01DX009 (ip), vehicle: saline) was 188, 195, 204, 213 % of control and the T/C (dose: 2.25 mg/kg/injection, schedule: Q01DX009 (oral), vehicle: saline) was 144 % of control. The T/C (dose: 2.25 mg/kg/injection, schedule: Q## X003 (ip), vehicle: saline) was 142 % of control, the T/C (dose: 3.0 mg/kg/injection, schedule: Q01DX009 (ip), vehicle: saline, evaluated on day 30) was 93 and 204 % of control and the T/C (dose: 3.0 mg/kg/injection, schedule: Q01DX009 (ip), vehicle: saline, evaluated on day 40) was 367 % of control. The T/C (dose: 3.0 mg/kg/injection, schedule: Q01DX009 (ip), vehicle: saline, evaluated on day 45) was 242 % of control, the T/C (dose: 3.0 mg/kg/injection, schedule: Q01DX009 (ip), vehicle: saline, evaluated on day 60) was 273 % of control and the T/C (dose: 3.0 mg/kg/injection, schedule: Q## X008 (ip), vehicle: saline) was 136 % of control. The T/C (dose: 3.6 mg/kg/injection, schedule: Q01DX009 (ip), vehicle: saline) was 210, 244, 290, 302 % of control, the T/C (dose: 4.0 mg/kg/injection, schedule: Q01DX005 (oral), vehicle: saline) was 132 % of control and the T/C (dose: 4.0 mg/kg/injection, schedule: Q## X040 (oral), vehicle: saline) was 126 % of control. The T/C (dose: 4.5 mg/kg/injection, schedule: Q04DX002 (ip), vehicle: saline) was 111, 127, 142, 149 % of control, the T/C (dose: 5.0 mg/kg/injection, schedule: Q01DX009 (ip), vehicle: saline) was 129 % of control and the T/C (dose: 6.0 mg/kg/injection, schedule: Q01DX001 (ip), vehicle: saline) was 127 % of control. For the same compound, the T/C (dose: 6.0 mg/kg/injection, schedule: Q01DX009 (ip), vehicle: water, evaluated on day 5) was 140 % of control, the T/C (dose: 6.0 mg/kg/injection, schedule: Q01DX009 (ip), vehicle: water, evaluated on day 60) was 142 % of control and the T/C (dose: 6.25 mg/kg/injection, schedule: Q04DX003 (ip), vehicle: clinical formulation) was 133, 137, 162 (2×), 167, 217 % of control. The T/C (dose: 6.25 mg/kg/injection, schedule: Q04DX003 (ip), vehicle: water, evaluated on day 30) was 212 and 218 % of control, the T/C (dose: 6.25 mg/kg/injection, schedule: Q04DX003 (ip), vehicle: water, evaluated on day 60) was 106, 154, 159, 167, 170, 171, 172, 179, 180 % of control and the survivor count (dose: 7.2 mg/kg/injection, schedule: Q01DX009 (ip), vehicle: saline) was 1 of 1. The T/C (dose: 9.0 mg/kg/injection, schedule: Q04DX002 (ip), vehicle: saline) was 154, 173, 178, 183 % of control, the survivor count (dose: 10.0 mg/kg/injection, schedule: Q01DX009 (ip), vehicle: carboxymethylcellulose (CMC)) was 6 of 6 and the T/C (dose: 12.0 mg/kg/injection, schedule: Q01DX001 (ip), vehicle: saline) was 144 % of control. The survivor count (dose: 12.0 mg/kg/injection, schedule: Q01DX005 (ip), vehicle: clinical formulation) was 2 of 6, the survivor count (dose: 12.0 mg/kg/injection, schedule: Q01DX005 (ip), vehicle: water) was 3 of 6 and the survivor count (dose: 12.0 mg/kg/injection, schedule: Q01DX009 (ip), vehicle: clinical formulation) was 6 of 6. The survivor count (dose: 12.0 mg/kg/injection, schedule: Q01DX009 (ip), vehicle: saline) was 6 of 6, the T/C (dose: 12.5 mg/kg/injection, schedule: Q04DX003 (ip), vehicle: clinical formulation) was 137, 151, 159, 201, 223, 265 % of control and the T/C (dose: 12.5 mg/kg/injection, schedule: Q04DX003 (ip), vehicle: water, evaluated on day 30) was 178 and 296 % of control. For the same compound, the T/C (dose: 12.5 mg/kg/injection, schedule: Q04DX003 (ip), vehicle: water, evaluated on day 60) was 154, 180, 212, 213, 215, 217, 227, 239, 248 % of control, the T/C (dose: 14.0 mg/kg/injection, schedule: Q01DX001 (ip), vehicle: saline) was 146 % of control and the T/C (dose: 16.0 mg/kg/injection, schedule: Q## X003 (oral), vehicle: saline) was 144 % of control. For the same compound, the T/C (dose: 16.0 mg/kg/injection, schedule: Q## X024 (oral), vehicle: saline) was 143 % of control, the T/C (dose: 18.0 mg/kg/injection, schedule: Q04DX002 (ip), vehicle: saline) was 174, 200, 209, 228 % of control and the survivor count (dose: 24.0 mg/kg/injection, schedule: Q01DX005 (ip), vehicle: saline) was 4 of 10. For the same compound, the survivor count (dose: 24.0 mg/kg/injection, schedule: Q01DX009 (ip), vehicle: clinical formulation) was 5 of 6, the survivor count (dose: 24.0 mg/kg/injection, schedule: Q01DX009 (ip), vehicle: saline) was 4 of 10 and 5 of 6 and the T/C (dose: 24.0 mg/kg/injection, schedule: Q01DX009 (oral), vehicle: saline) was 129 % of control. The survivor count (dose: 25.0 mg/kg/injection, schedule: Q01DX005 (ip), vehicle: saline) was 5 of 6, the survivor count (dose: 25.0 mg/kg/injection, schedule: Q01DX009 (ip), vehicle: saline) was 5 of 6 and the T/C (dose: 25.0 mg/kg/injection, schedule: Q04DX003 (ip), vehicle: clinical formulation) was 116, 126, 188, 211, 252, 261 % of control. The T/C (dose: 25.0 mg/kg/injection, schedule: Q04DX003 (ip), vehicle: water, evaluated on day 30) was 96 and 104 % of control, the T/C (dose: 25.0 mg/kg/injection, schedule: Q04DX003 (ip), vehicle: water, evaluated on day 60) was 92, 98, 104, 105, 109 (2×), 120, 143, 144 % of control and the T/C (dose: 32.0 mg/kg/injection, schedule: Q## X008 (oral), vehicle: saline) was 138 % of control. The survivor count (dose: 32.0 mg/kg/injection, schedule: Q## X040 (oral), vehicle: saline) was 7 of 10, the survivor count (dose: 48.0 mg/kg/injection, schedule: Q01DX005 (ip), vehicle: saline) was 0 of 10 and the survivor count (dose: 48.0 mg/kg/injection, schedule: Q01DX009 (oral), vehicle: saline) was 10 of 10. For the same compound, the survivor count (dose: 48.0 mg/kg/injection, schedule: Q## X008 (ip), vehicle: saline) was 5 of 10, the survivor count (dose: 48.0 mg/kg/injection, schedule: Q## X024 (ip), vehicle: saline) was 7 of 10 and the T/C (dose: 50.0 mg/kg/injection, schedule: Q01DX001 (ip), vehicle: saline, evaluated on day 5) was 161 % of control. For the same compound, the T/C (dose: 50.0 mg/kg/injection, schedule: Q01DX001 (ip), vehicle: saline, evaluated on day 60) was 161 % of control, the T/C (dose: 50.0 mg/kg/injection, schedule: Q01DX001 (ip), vehicle: saline, run until all animals had died) was 130 [5 of 6 alive], 164, 176 % of control and the survivor count (dose: 50.0 mg/kg/injection, schedule: Q01DX005 (ip), vehicle: saline) was 0 of 6. The survivor count (dose: 50.0 mg/kg/injection, schedule: Q01DX009 (ip), vehicle: saline) was 0 of 6, the T/C (dose: 50.0 mg/kg/injection, schedule: Q04DX003 (ip), vehicle: clinical formulation) was 95, 116, 122 (2×), 131, 152 % of control and the T/C [1] was 88, 91, 93, 117, 120, 157 % of control. For the same compound, the survivor count [1] was 10 of 10 (2×), the T/C (dose: 64.0 mg/kg/injection, schedule: Q## X024 (oral), vehicle: saline) was 128 % of control and the T/C (dose: 69.0 mg/kg/injection, schedule: Q04DX002 (ip), vehicle: saline) was 129 % of control. For the same compound, the T/C (dose: 75.0 mg/kg/injection, schedule: Q01DX001 (ip), vehicle: saline, evaluated on day 5) was 164 and 173 % of control, the T/C (dose: 75.0 mg/kg/injection, schedule: Q01DX001 (ip), vehicle: saline, evaluated on day 60) was 164 and 173 % of control and the survivor count (dose: 96.0 mg/kg/injection, schedule: Q## X008 (ip), vehicle: saline) was 0 of 10. For the same compound, the survivor count (dose: 96.0 mg/kg/injection, schedule: Q## X024 (ip), vehicle: saline) was 0 of 10, the T/C (dose: 100.0 mg/kg/injection, schedule: Q01DX001 (ip), vehicle: saline, evaluated on day 5) was 139 and 164 % of control and the T/C (dose: 100.0 mg/kg/injection, schedule: Q01DX001 (ip), vehicle: saline, evaluated on day 60) was 139 and 164 % of control [7 of 10 alive]. For the same compound, the T/C (dose: 100.0 mg/kg/injection, schedule: Q01DX001 (ip), vehicle: saline, run until all animals had died) was 158 and 164 % of control [5 of 6 alive], the survivor count (dose: 100.0 mg/kg/injection, schedule: Q01DX005 (ip), vehicle: saline) was 0 of 6 and the T/C (dose: 128.0 mg/kg/injection, schedule: Q01DX001 (oral), vehicle: saline) was 128 % of control. The survivor count (dose: 128.0 mg/kg/injection, schedule: Q## X024 (oral), vehicle: saline) was 8 of 10, the survivor count (dose: 192.0 mg/kg/injection, schedule: Q01DX001 (ip), vehicle: saline) was 3 of 10 and the survivor count (dose: 200.0 mg/kg/injection, schedule: Q01DX001 (ip), vehicle: saline) was 1 of 6. For the same compound, the survivor count (dose: 200.0 mg/kg/injection, schedule: Q01DX005 (ip), vehicle: saline) was 0 of 6 and the T/C (dose: 256.0 mg/kg/injection, schedule: Q01DX001 (oral), vehicle: saline) was 137 and 143 % of control [9 of 10 alive].
